Reference: PubChem BioAssay AID2417 (National Center for Advancing Translational Sciences (NCATS), 2010)
Among all 140,000 compounds or so, about 4,300 (3.1%) were called active. The shares of active, inactive and inconclusive entries below differ from those in the screen.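 How the source made its calls: active means readout at or below -70, meaning at least 70% loss of cells showing the perinucleolar compartment, a nuclear body marking cancer cells; inconclusive means readout between -30 and a set limit; inactive means the rest.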

assay: High Content Assay for Compounds that inhibit the Assembly of the Perinucleolar Compartment; conditions: PC3M PTB-GFP, PNC prevalence imaging, 16 h; at 10 µM; active compounds read low;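 further: plate controls were DMSO wells for no effect and camptothecin positive control wells for full effect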
Outline: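 Compounds are pinned in duplicate onto adhered PC3M cells stably expressing GFP-tagged PTB and incubated 16 h at 37 C. Cells are then fixed, nuclei stained with Hoechst, and PNC-positive cells counted.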

Compound	activity change (PNC), negative = inhibition
NC(=S)N=Nc1c(O)[nH]c2ccccc12	inactive: 88.8%
O=c1c2cnn(-c3ccccc3Cl)c2ncn1Cc1cccnc1	inactive: 19.1%
N#C/C(=C(/O)CSc1nnc(Cc2cccs2)n1C1CCCCC1)c1nc2ccccc2[nH]1	inactive: 6.55%
CNC(=S)NNC(=O)Cc1ccc(OC)c(OC)c1	inconclusive: -35.9%
CN(C)S(=O)(=O)N(CC(=O)Nc1ccccc1)c1ccccc1	inconclusive: -50.6%
Cc1nnc(SCC(=O)Nc2nc(C(C)(C)C)cs2)s1	inconclusive: -34.8%
CCOc1ccc(N(CC(=O)NCc2cccc(OC)c2)S(=O)(=O)c2c(C)noc2C)cc1	inconclusive: -60.4%
Cc1ccnc2nc(C(=O)OCC(=O)NCCc3ccccc3)nn12	inconclusive: -74%
COc1ccc(OC)c(NC(=O)CN2C(=O)c3ccccc3S2(=O)=O)c1	inactive: 23.4%
COc1ccc(NS(=O)(=O)c2cc(S(C)(=O)=O)ccc2C)cc1	inactive: 8.04%
CCCC(=O)Nc1cccc(C(=O)Nc2nccs2)c1	inactive: -14%
N#CCCn1cc(/C=N/NC(=O)c2ccncc2)c(-c2ccccc2)n1	active: -83.5%
Cc1ccc(Cn2c3ccccc3c3cn[nH]c(=O)c32)cc1	active: -108%
CC(C)OC(=O)CSc1nc(-c2ccc(F)cc2)nc2ccc(F)cc12	inconclusive: -38.9%
CC(Oc1ccc(Cl)cc1Cl)C(=O)Nn1cnnc1 (stereo not drawn)	active: -119%
CCOC(=O)c1ccc(COC(=O)c2ccc3c(c2)-c2ccccc2C3=O)cc1	inactive: 31.3%
Cn1nnnc1SCc1cccc(CSc2nnnn2C)n1	inconclusive: -34.4%
Cc1nc(NC(C)c2ccccc2)c2oc3ccccc3c2n1 (stereo not drawn)	inactive: -29.6%
Cc1ccccc1C(=O)NC(=S)NCC(=O)c1ccccc1	inactive: -27.2%
Cc1ccc(NC(=O)C2CCCO2)cc1[N+](=O)[O-] (stereo not drawn)	inactive: 0.0528%
COCCCn1c2nc3ccccc3nc2c2c(=O)n(Cc3ccc(Cl)cc3)c(C)nc21	inactive: 39.8%
O=C(NCCCCCCNC(=O)NCc1ccco1)NCc1ccco1	inconclusive: -32.1%
CCn1cc(/C=N\NC(=O)Cc2ccc([N+](=O)[O-])cc2)c(C)n1	inactive: -7.72%
COc1cc(Cn2c(-c3nonc3N)nc3ccccc32)ccc1C	inconclusive: -65.3%

Arranged by SMILES length (rising): some entries from above.
Compound	activity change (PNC), negative = inhibition
Cc1nnc(SCC(=O)Nc2nc(C(C)(C)C)cs2)s1	inconclusive: -34.8%
COc1ccc(NS(=O)(=O)c2cc(S(C)(=O)=O)ccc2C)cc1	inactive: 8.04%
N#CCCn1cc(/C=N/NC(=O)c2ccncc2)c(-c2ccccc2)n1	active: -83.5%
CCn1cc(/C=N\NC(=O)Cc2ccc([N+](=O)[O-])cc2)c(C)n1	inactive: -7.72%

The list goes on:

Compound	activity change (PNC), negative = inhibition
COc1ccc(C(=O)NC(=S)Nc2ccccc2N2CCCCC2)cc1[N+](=O)[O-]	inactive: 8.21%
Cc1cccc(NC2=C(NCCO)C(=O)c3ccccc3C2=O)c1	inactive: -28.2%
COc1cc2c(cc1OC)C1(CCCC1)C(N)=C2C#N	active: -100%
Cc1occc1-c1nnc(SCC(=O)Nc2nc3ccccc3s2)o1	inconclusive: -55.8%
COc1ccc(Br)cc1S(=O)(=O)N(CC(=O)N1CCOCC1)c1ccccc1	inconclusive: -30.5%
O=C(O)CCN1C(=O)C(=C2CCCCCC2)SC1=S	inconclusive: -41.6%
CC1(C)Cn2c(nnc2-c2ccccc2)S1	inactive: 2.16%
CCN(CC)c1ccc(N=Cc2ccccc2[N+](=O)[O-])cc1	active: -99.1%
CCNc1nc(N)nc(Oc2ccc(OCCOc3ccc(Cl)cc3Cl)nn2)n1	inconclusive: -39.8%
CC(=O)N1CCN(c2nc(CC(C)C)c3c(c2C#N)CCC3)CC1	inconclusive: -60.2%
CCCOC(=O)CCn1c(=S)oc2ccccc21	inactive: -6.88%
COc1ccc(-n2c(N)c(C(=O)NCc3cccnc3)sc2=S)cc1	inactive: 23.5%
CN(c1ccc(O)cc1)c1nc(-c2ccccc2)cs1	inconclusive: -34.6%
CNCCC=C1c2ccccc2CCc2ccccc21	inconclusive: -33.8%
CCCCn1c(SCC(=O)Nc2cc(C)on2)nc2ccccc2c1=O	inconclusive: -39.6%
CCCNC(=O)C1CC(=O)N(c2ccc(OCC(=O)Nc3cc(C)cc(C)c3)cc2)C1 (stereo not drawn)	inconclusive: -47%
OCCN1CCN(CC(O)COc2ccc3c(c2)OCO3)CC1 (stereo not drawn)	inconclusive: -37.2%
NC(=O)c1sc2nc3c(c(-c4ccc(Cl)cc4)c2c1N)CCCC3	inconclusive: -35.2%
c1csc(CCNc2ncnc3sc4c(c23)CCC4)c1	inconclusive: -55.5%
Cc1cccc(C(=O)N[C@H](C(=O)OCc2cc(=O)n3c(n2)sc2ccccc23)C(C)C)c1	inconclusive: -30.8%
CCC(C)(C)C(=O)Nc1cc([N+](=O)[O-])ccc1Cl	inconclusive: -34.4%
Brc1cc2[nH]cnc2c2ccccc12	inactive: 5.28%
COc1ccc(OCCSc2nnc(C)n2-c2ccccc2)cc1	inconclusive: -50.4%
CC(Sc1nnc2ccccn12)C(=O)Nc1ncc(Cl)cc1Cl (stereo not drawn)	inconclusive: -32.8%

Compound	activity change (PNC), negative = inhibition
CCOc1ccc(Nc2nc(N3CCCCC3)nc(N3CCCCC3)n2)cc1	inconclusive: -47.4%
CC1CN(CCCCOc2ccc(C(C)C)cc2)CC(C)O1 (stereo not drawn)	inconclusive: -35.1%
Cc1[nH]c2ccccc2c1C(=O)CSC(=S)N(C)C1CCCCC1	inconclusive: -41.6%
COc1ccc(C(=O)c2coc(-c3ccccc3C(=O)O)c2C(=O)O)cc1	inactive: -28.2%
Cc1onc(-c2c(Cl)cccc2Cl)c1C(=O)NCc1cccs1	inconclusive: -49.1%
Clc1ccc(Oc2cccc(/C=N/n3cnnc3)c2)cc1	inconclusive: -40.1%
O=C(NCc1nnc2n1CCCCC2)c1ccc(Cl)cc1Cl	inconclusive: -32.6%
CCOC(=O)c1sc(NC(=O)c2cc(-c3ccccc3)nc3ccccc23)c(C#N)c1C	inactive: 33.4%
O=C(c1ccccc1)N(c1ccccc1)C1C=CS(=O)(=O)C1 (stereo not drawn)	inconclusive: -30.9%
Cc1cc(Nc2nnnn2-c2ccccc2)n(-c2ccccc2)n1	inconclusive: -33.1%
Cc1ccc(NC(=O)/C(=C/c2cccs2)NC(=O)c2ccco2)c(C)c1	inactive: -22.2%
C=CCn1c(=O)c2ccccc2n2c(SCc3c(C(=O)OCC)oc4ccccc34)nnc12	inconclusive: -50.4%
C(=N\NC(=Nc1ccccc1)c1ccccn1)/c1ccccn1	inconclusive: -34.5%
CCOC(=O)c1cnc(SCC(=O)Nc2sc(C)c(C)c2C#N)nc1N	inactive: 26.3%
CN1CCc2nc(SCc3ccc(C(C)(C)C)cc3)c(C#N)cc2C1	inactive: 92.8%
Cc1onc(-c2ccccc2Cl)c1C(=O)Nc1cccc2nsnc12	inconclusive: -59.1%
c1cnc2c(OCc3cn4cccnc4n3)cccc2c1	inactive: 39.8%
O=C(O)CC(C(=O)O)c1cn(Cc2ccccc2)c2ccccc12 (stereo not drawn)	inactive: 12.8%
CCOC(=O)/C(=C\c1cccnc1)C(=O)c1cc(C(C)=O)c(Nc2ccccc2)s1	active: -111%
O=C(NC(=S)Nc1ccccc1N1CCCC1)c1ccccc1[N+](=O)[O-]	inactive: -20.3%
COc1cccc(OC)c1C(=O)N1CCOCC1	inactive: -11.7%
COC(=O)NCC1(C)CC(NC(=O)OC)CC(C)(C)C1 (stereo not drawn)	inconclusive: -50.3%
CCN(CC)c1ccc(/C=N/NC(=O)C(O)(c2ccccc2)c2ccccc2)o1	inconclusive: -37.9%
CCCn1c2c(c(O)c(C(=O)Nc3ncccc3O)c1=O)CCCC2	inconclusive: -37.5%

Compound	activity change (PNC), negative = inhibition
Cc1cccc(-n2nnnc2SCC(=O)c2cc(C)n(CC3CCCO3)c2C)c1 (stereo not drawn)	inactive: 64.4%
COc1cc(NS(=O)(=O)c2ccc(NC(=O)CSC3=NCCS3)cc2)nc(OC)n1	inconclusive: -31.2%
CC(C)N(C(=O)CSc1nnc(CN2CCCCCC2=O)n1-c1ccccn1)C(C)C	inconclusive: -33.8%
COc1ccc(C(=O)Nc2ccc(-c3ccc(C)o3)cc2)cc1S(=O)(=O)N1CCOCC1	inconclusive: -47.2%
COc1cccc(-n2c(SCC#N)nnc2-c2cnccn2)c1	inconclusive: -32.6%
Cc1nn(Cc2ccccc2)c(C)c1NC(=O)CSc1nc(-c2ccccc2)nc2c1cnn2-c1ccccc1	inconclusive: -71.3%
COc1ccc2cc(C(=O)Nc3ccc(F)cc3)sc(=O)c2c1OC	inactive: 3.92%
CN(CC(=O)Nc1nc2ccccc2s1)S(=O)(=O)c1ccccc1	inconclusive: -43.7%
Cn1cc([N+](=O)[O-])c(C(=O)Nc2cc(Oc3ccccc3)cc([N+](=O)[O-])c2)n1	active: -125%
CCSc1nnc(N(CCC(=O)O)CCC(=O)O)s1	inconclusive: -35.6%
O=C(Nc1ccc2c(c1)OCO2)c1c(F)cccc1F	inconclusive: -52.7%
CCOC(=O)Nc1ccc(S(=O)(=O)Nc2nccc(C)n2)cc1	inconclusive: -46.5%
CN(C)c1ccc(C(=O)n2nnc3ccccc32)cc1	inactive: 35.4%
Cc1ccccc1CS(=O)(=O)c1nnc([C@H](CC(C)C)NC(=O)OC(C)(C)C)o1	inactive: 44%
Cc1ccc(-c2sc(-c3ccccc3)nc2CC(=O)Nc2ccccc2F)cc1	inconclusive: -46.6%
N#C/C(C(=O)c1ccccc1)=C1/CCCCCN1	inconclusive: -72%
COc1ccc(S(=O)(=O)N(Cc2cc3cc(C)ccc3[nH]c2=O)CC2CCCO2)cc1 (stereo not drawn)	inactive: 39.7%
Cc1csc(N(C(=O)c2ccc(S(=O)(=O)N(C)C)cc2)c2ccccc2)n1	inconclusive: -51.7%
CCCCCc1ccc(CC(=O)O)cc1	inconclusive: -44.5%
CC(=O)c1c(C)nc2ccc(Cl)cn12	inactive: -4.66%
C=CCn1c(SCc2ccc(Cl)cc2)nc2c1c(=O)[nH]c(=O)n2C	inconclusive: -31.7%
